PubChem BioAssay AID330 (DTP/NCI, 2004)
The list is a part of this screen's results and no random one: it covers a few groups of compounds. Other doses and runs of a compound may be missing. T/C gives the treated animals as a percentage of the vehicle group. Where survival is the endpoint, the PubChem record calls one and a half times the control and up active, and a quarter to a half above the control has no call in these data; cut-offs in other NCI protocols can differ. Schedule codes are those of the source, taken here to give the interval after Q, in days (D) or hours (H), and the number of doses after X. Some T/C values are marked as having no survivor count here; that says nothing about deaths at the dose. Some entries hold several experiments; the values are given in rising order.

Test system: P388 leukemia ip, CD2F1 mice, survival T/C
Assay: NCI In Vivo Anticancer Drug Screen. Data for tumor model P388 Leukemia (intraperitoneal) in CD2F1 (CDF1) mice
Settings: T/C endpoint: median survival time, schedule: Q01DX009 (ip), higher T/C = longer survival

For C[C@@H]1CCOC(=O)/C=C/C=C\C(=O)O[C@@H]2C[C@H]3O[C@@H]4[C@@H]5OC5(C)CCC4(COC(=O)[C@H]1O)[C@]2(C)[C@@]31CO1 (some centres not stated), the T/C (dose: 0.25 mg/kg/injection, vehicle: saline + alcohol) was 148 % of control [survivor count not shown], the T/C (dose: 0.5 mg/kg/injection, vehicle: other) was 145 % of control [survivor count not shown] and the T/C (dose: 0.5 mg/kg/injection, vehicle: saline + alcohol) was 144 % of control [survivor count not shown]. For the same compound, the T/C (dose: 1.0 mg/kg/injection, vehicle: other) was 150 % of control [survivor count not shown], the T/C (dose: 1.0 mg/kg/injection, vehicle: saline + alcohol) was 167 % of control [survivor count not shown] and the T/C (dose: 2.0 mg/kg/injection, vehicle: other) was 142 % of control [survivor count not shown]. The T/C (dose: 2.0 mg/kg/injection, vehicle: saline + alcohol) was 163 % of control [survivor count not shown], the T/C (dose: 4.0 mg/kg/injection, vehicle: other) was 164 % of control [survivor count not shown] and the T/C (dose: 4.0 mg/kg/injection, vehicle: saline + alcohol) was 183 % of control [survivor count not shown]. The T/C (dose: 8.0 mg/kg/injection, vehicle: saline + alcohol) was 210 % of control [survivor count not shown].
CC1=CC2OC3CC4OC(=O)/C=C/C=C/C(C(C)O)OCC(O)C(C)CC(=O)OCC2(CC1O)C4(C)C31CO1 (configuration not stated) was tested, and the T/C (dose: 0.13 mg/kg/injection, vehicle: Klucel (hydroxypropylcellulose) (HPC)) was 133 % of control [survivor count not shown], the T/C (dose: 0.16 mg/kg/injection, vehicle: Klucel (hydroxypropylcellulose) (HPC)) was 136 % of control [survivor count not shown] and the T/C (dose: 0.25 mg/kg/injection, vehicle: Klucel (hydroxypropylcellulose) (HPC)) was 155 % of control [survivor count not shown]. For the same compound, the T/C (dose: 0.31 mg/kg/injection, vehicle: Klucel (hydroxypropylcellulose) (HPC)) was 133 % of control [survivor count not shown], the T/C (dose: 0.5 mg/kg/injection, vehicle: Klucel (hydroxypropylcellulose) (HPC)) was 150 % of control [survivor count not shown] and the T/C (dose: 0.63 mg/kg/injection, vehicle: Klucel (hydroxypropylcellulose) (HPC)) was 154 % of control [survivor count not shown]. The T/C (dose: 1.0 mg/kg/injection, vehicle: Klucel (hydroxypropylcellulose) (HPC)) was 180 % of control [survivor count not shown], the T/C (dose: 1.25 mg/kg/injection, vehicle: Klucel (hydroxypropylcellulose) (HPC)) was 163 % of control [survivor count not shown] and the T/C (dose: 7.5 micrograms/kg/injection, vehicle: saline + alcohol) was 105 % of control [survivor count not shown]. The T/C (dose: 15.0 micrograms/kg/injection, vehicle: saline + alcohol) was 124 % of control [survivor count not shown], the T/C (dose: 31.0 micrograms/kg/injection, vehicle: saline + alcohol) was 130 % of control [survivor count not shown] and the T/C (dose: 62.0 micrograms/kg/injection, vehicle: saline + alcohol) was 140 % of control [survivor count not shown]. For the same compound, the T/C (dose: 125.0 micrograms/kg/injection, vehicle: saline + alcohol) was 166 % of control [survivor count not shown], the T/C (dose: 250.0 micrograms/kg/injection, vehicle: saline + alcohol) was 158 % of control [survivor count not shown] and the T/C (dose: 500.0 micrograms/kg/injection, vehicle: saline + alcohol) was 177 % of control [survivor count not shown]. For the same compound, the T/C (dose: 1000.0 micrograms/kg/injection, vehicle: saline + alcohol) was 278 % of control [survivor count not shown].
C/C1=C/C(=O)OCC23CCC4(C)OC4C2OC2CC(OC(=O)/C=C\C=C/C4OC(C1)OC4C)C3(C)C21CO1 (configuration not stated) was tested, and the T/C (dose: 1.0 mg/kg/injection, vehicle: distilled water + Tween-80) was 113 % of control [survivor count not shown], the T/C (dose: 2.0 mg/kg/injection, vehicle: distilled water + Tween-80) was 109 [survivor count not shown] and 111 % of control [survivor count not shown] and the T/C (dose: 4.0 mg/kg/injection, vehicle: distilled water + Tween-80) was 115 [survivor count not shown] and 123 % of control [survivor count not shown]. For the same compound, the T/C (dose: 8.0 mg/kg/injection, vehicle: distilled water + Tween-80) was 135 [survivor count not shown] and 138 % of control [survivor count not shown], the T/C (dose: 16.0 mg/kg/injection, vehicle: distilled water + Tween-80) was 148 % of control [survivor count not shown] and the T/C (dose: 32.0 mg/kg/injection, vehicle: distilled water + Tween-80) was 172 % of control [survivor count not shown].
